This is one part of the list. The data scatter; read single values as rough.

The chains behind the UniProt entries cited, without tags or fusion partners. Where a name states a change or a piece, a line headed by the entry shows the natural chain unless it says otherwise. Residues count along the entry.
UniProt Q29RF7, 1-22: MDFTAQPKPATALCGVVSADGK
UniProt Q6VY07, whole entry, looked up: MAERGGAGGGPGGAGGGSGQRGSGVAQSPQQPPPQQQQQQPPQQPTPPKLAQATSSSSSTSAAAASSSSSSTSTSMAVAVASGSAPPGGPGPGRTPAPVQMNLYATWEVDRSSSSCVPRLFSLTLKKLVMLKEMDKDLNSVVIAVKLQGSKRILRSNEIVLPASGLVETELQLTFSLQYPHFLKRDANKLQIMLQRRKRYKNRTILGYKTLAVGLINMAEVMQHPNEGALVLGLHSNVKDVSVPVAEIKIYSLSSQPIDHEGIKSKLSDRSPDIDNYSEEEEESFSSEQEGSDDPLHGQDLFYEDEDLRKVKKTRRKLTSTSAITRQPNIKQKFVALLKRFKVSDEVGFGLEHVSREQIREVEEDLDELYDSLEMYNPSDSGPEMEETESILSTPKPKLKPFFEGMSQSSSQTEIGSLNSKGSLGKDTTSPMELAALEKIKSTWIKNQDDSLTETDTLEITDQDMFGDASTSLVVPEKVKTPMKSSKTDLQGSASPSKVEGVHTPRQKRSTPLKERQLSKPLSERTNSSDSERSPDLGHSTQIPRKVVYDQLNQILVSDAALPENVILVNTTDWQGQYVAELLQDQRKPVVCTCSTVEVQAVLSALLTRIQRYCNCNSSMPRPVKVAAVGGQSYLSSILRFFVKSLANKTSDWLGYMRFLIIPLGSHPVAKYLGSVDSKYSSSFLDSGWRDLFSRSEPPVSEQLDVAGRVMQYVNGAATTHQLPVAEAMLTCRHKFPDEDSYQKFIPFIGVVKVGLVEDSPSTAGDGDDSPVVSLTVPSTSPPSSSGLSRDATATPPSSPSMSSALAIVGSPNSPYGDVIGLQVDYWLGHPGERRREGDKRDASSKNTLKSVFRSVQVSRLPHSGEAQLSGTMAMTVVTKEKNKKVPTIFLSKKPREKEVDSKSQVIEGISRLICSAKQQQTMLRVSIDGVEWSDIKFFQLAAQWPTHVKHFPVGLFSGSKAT
UniProt O95747, whole entry, looked up: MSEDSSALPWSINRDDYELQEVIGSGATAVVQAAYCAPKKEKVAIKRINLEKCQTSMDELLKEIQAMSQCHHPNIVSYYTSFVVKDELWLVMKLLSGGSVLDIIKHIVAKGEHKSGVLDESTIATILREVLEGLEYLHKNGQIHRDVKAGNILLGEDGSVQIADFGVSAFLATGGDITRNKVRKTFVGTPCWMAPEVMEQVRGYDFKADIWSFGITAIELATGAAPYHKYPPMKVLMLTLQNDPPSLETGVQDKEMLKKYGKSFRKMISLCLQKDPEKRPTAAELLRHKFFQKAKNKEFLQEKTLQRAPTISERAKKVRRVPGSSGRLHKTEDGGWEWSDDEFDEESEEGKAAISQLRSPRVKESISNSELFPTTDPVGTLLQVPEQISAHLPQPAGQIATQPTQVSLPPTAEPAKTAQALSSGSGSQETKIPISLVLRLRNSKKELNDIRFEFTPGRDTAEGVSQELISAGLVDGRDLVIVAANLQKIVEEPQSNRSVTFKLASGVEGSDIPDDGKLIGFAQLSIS
UniProt Q86YC2: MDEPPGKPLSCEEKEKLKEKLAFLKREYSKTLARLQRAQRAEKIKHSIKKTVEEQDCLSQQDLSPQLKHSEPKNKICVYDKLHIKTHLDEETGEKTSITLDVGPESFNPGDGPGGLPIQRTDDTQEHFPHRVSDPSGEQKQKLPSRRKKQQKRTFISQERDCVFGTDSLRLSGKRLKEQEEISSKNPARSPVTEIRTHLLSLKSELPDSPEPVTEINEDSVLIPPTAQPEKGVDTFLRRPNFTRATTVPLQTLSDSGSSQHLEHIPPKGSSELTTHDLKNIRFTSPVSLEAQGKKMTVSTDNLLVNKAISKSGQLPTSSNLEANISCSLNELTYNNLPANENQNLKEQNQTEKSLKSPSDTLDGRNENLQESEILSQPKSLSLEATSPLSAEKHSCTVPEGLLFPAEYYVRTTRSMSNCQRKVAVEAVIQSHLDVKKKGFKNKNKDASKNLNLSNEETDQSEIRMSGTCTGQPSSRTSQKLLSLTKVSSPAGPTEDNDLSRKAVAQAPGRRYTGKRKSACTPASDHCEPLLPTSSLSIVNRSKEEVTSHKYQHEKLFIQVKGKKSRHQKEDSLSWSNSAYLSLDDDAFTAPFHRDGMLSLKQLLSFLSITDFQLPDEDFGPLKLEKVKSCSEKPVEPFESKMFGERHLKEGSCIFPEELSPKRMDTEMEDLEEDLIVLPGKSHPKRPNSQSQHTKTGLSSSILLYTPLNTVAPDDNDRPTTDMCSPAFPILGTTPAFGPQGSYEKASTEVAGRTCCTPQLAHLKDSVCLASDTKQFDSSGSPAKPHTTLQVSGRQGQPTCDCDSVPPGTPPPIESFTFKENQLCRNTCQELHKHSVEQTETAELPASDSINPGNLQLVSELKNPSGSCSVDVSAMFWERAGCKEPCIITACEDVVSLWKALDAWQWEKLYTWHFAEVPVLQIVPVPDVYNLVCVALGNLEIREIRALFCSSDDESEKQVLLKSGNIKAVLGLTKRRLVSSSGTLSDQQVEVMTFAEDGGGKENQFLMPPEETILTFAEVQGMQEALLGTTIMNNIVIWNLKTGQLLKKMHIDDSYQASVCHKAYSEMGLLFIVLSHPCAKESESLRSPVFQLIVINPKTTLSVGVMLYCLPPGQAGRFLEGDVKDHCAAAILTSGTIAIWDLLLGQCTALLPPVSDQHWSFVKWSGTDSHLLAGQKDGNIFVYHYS
UniProt A6NDG6: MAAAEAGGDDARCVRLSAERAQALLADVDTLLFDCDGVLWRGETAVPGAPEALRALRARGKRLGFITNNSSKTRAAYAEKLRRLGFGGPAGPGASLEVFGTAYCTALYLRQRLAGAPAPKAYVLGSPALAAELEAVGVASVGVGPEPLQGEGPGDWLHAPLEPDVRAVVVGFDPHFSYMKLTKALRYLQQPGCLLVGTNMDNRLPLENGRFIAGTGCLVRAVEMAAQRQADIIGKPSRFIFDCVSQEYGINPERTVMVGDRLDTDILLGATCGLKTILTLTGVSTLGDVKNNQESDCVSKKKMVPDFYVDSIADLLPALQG
UniProt P12004, 118-138: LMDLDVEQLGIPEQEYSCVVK
UniProt Q14432, 519-541: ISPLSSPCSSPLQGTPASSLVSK
UniProt Q13310: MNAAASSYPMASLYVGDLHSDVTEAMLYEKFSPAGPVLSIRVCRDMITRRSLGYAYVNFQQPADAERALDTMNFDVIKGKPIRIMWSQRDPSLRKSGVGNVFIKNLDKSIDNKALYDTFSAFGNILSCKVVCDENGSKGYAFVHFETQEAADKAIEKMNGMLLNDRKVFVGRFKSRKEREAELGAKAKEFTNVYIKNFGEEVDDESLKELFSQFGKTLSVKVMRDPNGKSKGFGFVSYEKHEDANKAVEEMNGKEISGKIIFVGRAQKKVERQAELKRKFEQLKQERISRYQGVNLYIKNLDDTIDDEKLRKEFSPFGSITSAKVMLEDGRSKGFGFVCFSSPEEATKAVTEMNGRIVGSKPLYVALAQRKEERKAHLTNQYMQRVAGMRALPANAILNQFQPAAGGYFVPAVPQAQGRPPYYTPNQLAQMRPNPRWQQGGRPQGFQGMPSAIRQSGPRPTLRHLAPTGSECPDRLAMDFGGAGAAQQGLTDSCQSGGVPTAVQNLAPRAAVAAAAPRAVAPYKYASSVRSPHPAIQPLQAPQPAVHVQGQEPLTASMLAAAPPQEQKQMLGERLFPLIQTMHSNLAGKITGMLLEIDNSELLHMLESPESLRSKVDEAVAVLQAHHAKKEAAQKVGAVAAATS
UniProt Q15004: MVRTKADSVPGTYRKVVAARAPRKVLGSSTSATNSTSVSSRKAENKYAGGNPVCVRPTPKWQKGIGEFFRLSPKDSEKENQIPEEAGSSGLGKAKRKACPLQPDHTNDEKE
UniProt Q8IZ21: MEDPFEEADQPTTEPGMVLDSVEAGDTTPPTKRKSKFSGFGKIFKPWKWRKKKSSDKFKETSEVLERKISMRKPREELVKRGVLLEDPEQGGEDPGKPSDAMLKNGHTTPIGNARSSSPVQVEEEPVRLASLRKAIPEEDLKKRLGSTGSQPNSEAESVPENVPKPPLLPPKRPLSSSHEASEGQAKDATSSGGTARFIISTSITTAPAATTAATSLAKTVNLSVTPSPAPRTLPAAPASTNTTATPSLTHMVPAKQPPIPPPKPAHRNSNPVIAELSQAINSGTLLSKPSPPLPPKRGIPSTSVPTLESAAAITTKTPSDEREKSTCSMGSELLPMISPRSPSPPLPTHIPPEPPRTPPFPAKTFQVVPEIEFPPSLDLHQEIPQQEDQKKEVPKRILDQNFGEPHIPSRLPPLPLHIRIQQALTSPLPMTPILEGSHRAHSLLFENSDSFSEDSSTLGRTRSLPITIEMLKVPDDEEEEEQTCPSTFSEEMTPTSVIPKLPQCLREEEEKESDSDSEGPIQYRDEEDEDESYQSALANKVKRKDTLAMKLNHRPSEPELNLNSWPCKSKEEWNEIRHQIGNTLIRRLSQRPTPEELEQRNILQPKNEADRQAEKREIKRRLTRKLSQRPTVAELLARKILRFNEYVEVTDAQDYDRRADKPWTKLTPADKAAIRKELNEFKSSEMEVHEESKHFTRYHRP
UniProt Q58A45: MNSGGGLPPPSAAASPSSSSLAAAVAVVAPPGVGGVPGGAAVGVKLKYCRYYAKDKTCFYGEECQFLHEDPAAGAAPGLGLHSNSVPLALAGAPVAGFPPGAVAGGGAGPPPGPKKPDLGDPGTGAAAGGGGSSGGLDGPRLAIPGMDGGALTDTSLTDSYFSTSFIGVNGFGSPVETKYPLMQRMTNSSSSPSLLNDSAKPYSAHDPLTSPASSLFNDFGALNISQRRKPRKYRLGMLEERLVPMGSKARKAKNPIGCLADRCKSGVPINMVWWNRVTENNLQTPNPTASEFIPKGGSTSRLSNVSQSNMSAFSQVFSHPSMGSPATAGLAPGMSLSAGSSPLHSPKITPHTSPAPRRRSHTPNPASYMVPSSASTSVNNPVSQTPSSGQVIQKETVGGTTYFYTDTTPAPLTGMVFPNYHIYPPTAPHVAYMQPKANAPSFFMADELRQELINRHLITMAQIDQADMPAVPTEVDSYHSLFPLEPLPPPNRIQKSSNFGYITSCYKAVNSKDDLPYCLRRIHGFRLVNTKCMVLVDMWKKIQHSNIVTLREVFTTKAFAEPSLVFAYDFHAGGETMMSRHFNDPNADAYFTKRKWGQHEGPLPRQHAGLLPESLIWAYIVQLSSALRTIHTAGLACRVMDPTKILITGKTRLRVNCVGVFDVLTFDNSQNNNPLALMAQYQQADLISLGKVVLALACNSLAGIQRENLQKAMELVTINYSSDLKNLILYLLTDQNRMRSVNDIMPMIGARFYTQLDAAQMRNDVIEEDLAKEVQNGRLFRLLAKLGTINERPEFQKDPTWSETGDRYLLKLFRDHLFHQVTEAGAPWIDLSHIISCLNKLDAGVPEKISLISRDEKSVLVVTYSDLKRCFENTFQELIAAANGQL
UniProt Q96HC4: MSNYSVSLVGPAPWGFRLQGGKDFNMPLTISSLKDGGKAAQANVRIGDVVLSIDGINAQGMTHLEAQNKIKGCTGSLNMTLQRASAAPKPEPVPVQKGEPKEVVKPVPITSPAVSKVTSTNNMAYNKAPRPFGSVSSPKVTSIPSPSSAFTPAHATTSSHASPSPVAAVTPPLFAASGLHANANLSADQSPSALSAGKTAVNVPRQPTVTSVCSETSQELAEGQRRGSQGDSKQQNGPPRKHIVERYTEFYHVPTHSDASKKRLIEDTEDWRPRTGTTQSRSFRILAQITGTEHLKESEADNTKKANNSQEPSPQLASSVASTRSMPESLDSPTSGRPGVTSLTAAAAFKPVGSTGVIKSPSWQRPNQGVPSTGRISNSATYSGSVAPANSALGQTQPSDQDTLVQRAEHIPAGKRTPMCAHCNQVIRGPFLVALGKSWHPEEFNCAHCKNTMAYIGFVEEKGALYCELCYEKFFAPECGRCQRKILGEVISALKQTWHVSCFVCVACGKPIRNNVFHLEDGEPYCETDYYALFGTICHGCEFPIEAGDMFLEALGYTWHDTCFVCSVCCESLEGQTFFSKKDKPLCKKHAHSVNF
UniProt P36871: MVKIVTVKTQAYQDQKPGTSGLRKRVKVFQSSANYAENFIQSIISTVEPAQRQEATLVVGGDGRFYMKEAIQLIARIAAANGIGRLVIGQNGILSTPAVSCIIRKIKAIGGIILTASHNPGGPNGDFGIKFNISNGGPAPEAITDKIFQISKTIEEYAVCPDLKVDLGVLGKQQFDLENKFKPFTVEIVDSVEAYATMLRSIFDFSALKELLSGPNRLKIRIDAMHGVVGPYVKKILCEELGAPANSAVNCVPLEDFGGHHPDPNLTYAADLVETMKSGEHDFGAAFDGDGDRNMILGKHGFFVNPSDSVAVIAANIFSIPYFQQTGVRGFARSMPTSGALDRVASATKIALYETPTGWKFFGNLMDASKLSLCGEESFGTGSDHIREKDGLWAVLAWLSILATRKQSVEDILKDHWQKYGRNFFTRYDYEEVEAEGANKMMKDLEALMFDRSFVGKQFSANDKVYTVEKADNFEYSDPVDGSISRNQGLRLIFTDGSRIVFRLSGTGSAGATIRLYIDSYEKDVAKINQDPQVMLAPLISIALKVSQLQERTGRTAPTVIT

Compound in one assay: ClCC(=O)N[C@@H]1CCCc2ccccc12
Kind of assay: log2 mean competition ratio of IA-DTB cysteine labelling (DMSO/compound) (log2 ratio); higher = stronger cysteine engagement by compound. As to conditions: 50 µM; treatment time: 4 h; cell line lysate: HEK293T. As for the experimental part:
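IA-DTB competitive cysteine chemoproteomics in HEK293T RIPA lysate. Lysates were treated with compound 29 or 30 at 50 or 200 µM for 4 h, then IA-DTB (500 µM, 1 h), trypsin-digested, NeutrAvidin-enriched and analysed by diaPASEF. Competition ratio = intensity DMSO / intensity compound (n=4 treated, n=64 DMSO); binding: mean log2 CR ≥ 1 and p ≤ 0.05 plus QC filters. Target is the cysteine site.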
For the target PDS5B C579 (UniProt Q9NTI5), the “log2 mean competition ratio” value is -0.196.

As to PDS5A C14 (UniProt Q29RF7), the “log2 mean competition ratio” value was -0.0748.

Take PDCD11 C81 (UniProt Q14690): the “log2 mean competition ratio” value amounted to 0.0588.

For PACS1 C116 (UniProt Q6VY07), the “log2 mean competition ratio” value amounted to 0.0549.

With OXSR1 C53 (UniProt O95747), the “log2 mean competition ratio” value was 0.00155.

Consider PALB2 C469 (UniProt Q86YC2), for which the “log2 mean competition ratio” value worked out at 0.0348.

Regarding PGP C217 (UniProt A6NDG6), the “log2 mean competition ratio” value came to 0.317.

For PCNA C135 (UniProt P12004), the “log2 mean competition ratio” value was determined as 0.279.

Consider PCNT C2446 (UniProt O95613), for which the “log2 mean competition ratio” value was -0.0342.

Consider PDE3A C526 (UniProt Q14432), for which the “log2 mean competition ratio” value is -0.071.

For the target PABPC4 C472 (UniProt Q13310), the “log2 mean competition ratio” value worked out at 0.251.

As to PCNA C162 (UniProt P12004), the “log2 mean competition ratio” value was -0.285.

With PAPSS1 C360 (UniProt O43252), the “log2 mean competition ratio” value was 0.662.

As to PDCD4 C288 (UniProt Q53EL6), the “log2 mean competition ratio” value was found to be 0.127.

In the case of PCLAF C54 (UniProt Q15004), the “log2 mean competition ratio” value amounted to 0.496.

As to PHACTR4 C328 (UniProt Q8IZ21), the “log2 mean competition ratio” value stood at 0.0349.

For the target PAN3 C259 (UniProt Q58A45), the “log2 mean competition ratio” value amounted to 0.0403.

Turning to PDLIM5 C479 (UniProt Q96HC4), the “log2 mean competition ratio” value was -0.154.

Consider PGM1 C160 (UniProt P36871), for which the “log2 mean competition ratio” value is -0.254.

As for PARN C169 (UniProt O95453), the “log2 mean competition ratio” value came to 0.00134.

The assay is the same for the next values; noted with them: 200 µM; treatment time: 4 h; cell line lysate: HEK293T.
For the target PDS5B C579 (UniProt Q9NTI5), the “log2 mean competition ratio” value came to 0.584.

For PDS5A C14 (UniProt Q29RF7), the “log2 mean competition ratio” value is 0.161.

On to PDCD11 C81 (UniProt Q14690), for which the “log2 mean competition ratio” value was determined as 0.209.

As to PACS1 C116 (UniProt Q6VY07), the “log2 mean competition ratio” value is -0.0869.

On to OXSR1 C53 (UniProt O95747), for which the “log2 mean competition ratio” value was -0.13.

PALB2 C469 (UniProt Q86YC2): the “log2 mean competition ratio” value is 0.244.

As for PGP C217 (UniProt A6NDG6), the “log2 mean competition ratio” value was determined as 0.21.

With PCNA C135 (UniProt P12004), the “log2 mean competition ratio” value was found to be 0.258.

On to PCNT C2446 (UniProt O95613), for which the “log2 mean competition ratio” value is -0.0914.

For the target PDE3A C526 (UniProt Q14432), the “log2 mean competition ratio” value amounted to 0.629.

In the case of PABPC4 C472 (UniProt Q13310), the “log2 mean competition ratio” value is 0.374.

In the case of PCNA C162 (UniProt P12004), the “log2 mean competition ratio” value is -0.148.

With PAPSS1 C360 (UniProt O43252), the “log2 mean competition ratio” value was determined as 2.92.

As for PDCD4 C288 (UniProt Q53EL6), the “log2 mean competition ratio” value stood at 0.183.

Turning to PCLAF C54 (UniProt Q15004), the “log2 mean competition ratio” value is -0.216.

Regarding PHACTR4 C328 (UniProt Q8IZ21), the “log2 mean competition ratio” value was -0.28.

On to PAN3 C259 (UniProt Q58A45), for which the “log2 mean competition ratio” value turned out to be 0.328.

On to PDLIM5 C479 (UniProt Q96HC4), for which the “log2 mean competition ratio” value was -0.197.

PGM1 C160 (UniProt P36871): the “log2 mean competition ratio” value is -0.281.

Regarding PARN C169 (UniProt O95453), the “log2 mean competition ratio” value was -0.0465.

For the origin of these results see the supplement of paper PMC11732987, “Enantioselective OTUD7B fragment discovery through chemoproteomics screening and high-throughput optimisation” (Communications Chemistry, 2025).
